Results are given in words; binding and its absence hold for the method and conditions named. Some results given as binding are weak or reduced against the parent protein; the word gives no strength. For some assays here: Where a sequence is shown, tags or fusion partners need not be part of it.
Tests used:
[1] = molecular target: S. pneumoniae RecA, full-length (FL), Gal4 fusion for yeast two-hybrid (S. pneumoniae) (UniProt P0A451); assay: two-hybrid; Gal4-AD (pGAD-C1) and Gal4-BD (pGBDU-C1) fusions co-transformed in yeast pJ69-4A; growth on synthetic complete medium lacking leucine, uracil and histidine; 1/5th dilution series, 5 days at 28°C
[2] = molecular target: T1, S. pneumoniae wild-type DprA, Gal4-BD fusion (S. pneumoniae) (UniProt Q8DPI7); assay: as above
T1 sequence: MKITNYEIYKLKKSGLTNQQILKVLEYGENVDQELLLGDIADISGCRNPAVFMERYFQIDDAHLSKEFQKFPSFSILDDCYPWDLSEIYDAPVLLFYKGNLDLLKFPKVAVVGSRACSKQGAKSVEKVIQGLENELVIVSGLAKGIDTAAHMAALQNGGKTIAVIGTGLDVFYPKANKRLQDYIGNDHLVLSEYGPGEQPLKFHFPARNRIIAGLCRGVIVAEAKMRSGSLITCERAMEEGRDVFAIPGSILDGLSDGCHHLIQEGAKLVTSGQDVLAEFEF

binding [1]: binds
binding [2]: no binding
Substance: S. pneumoniae RecA, full-length (FL), Gal4 fusion for yeast two-hybrid (from UniProt P0A451 1-388)

From PMC4066776
